According to the supplement of paper PMC10849652:
This is one part of the list.

Sequences of proteins named here, by UniProt entry; tags and fusion partners are left off. A change or cut given only in a name is not applied to a line headed by its entry.
UniProt Q8IUG5: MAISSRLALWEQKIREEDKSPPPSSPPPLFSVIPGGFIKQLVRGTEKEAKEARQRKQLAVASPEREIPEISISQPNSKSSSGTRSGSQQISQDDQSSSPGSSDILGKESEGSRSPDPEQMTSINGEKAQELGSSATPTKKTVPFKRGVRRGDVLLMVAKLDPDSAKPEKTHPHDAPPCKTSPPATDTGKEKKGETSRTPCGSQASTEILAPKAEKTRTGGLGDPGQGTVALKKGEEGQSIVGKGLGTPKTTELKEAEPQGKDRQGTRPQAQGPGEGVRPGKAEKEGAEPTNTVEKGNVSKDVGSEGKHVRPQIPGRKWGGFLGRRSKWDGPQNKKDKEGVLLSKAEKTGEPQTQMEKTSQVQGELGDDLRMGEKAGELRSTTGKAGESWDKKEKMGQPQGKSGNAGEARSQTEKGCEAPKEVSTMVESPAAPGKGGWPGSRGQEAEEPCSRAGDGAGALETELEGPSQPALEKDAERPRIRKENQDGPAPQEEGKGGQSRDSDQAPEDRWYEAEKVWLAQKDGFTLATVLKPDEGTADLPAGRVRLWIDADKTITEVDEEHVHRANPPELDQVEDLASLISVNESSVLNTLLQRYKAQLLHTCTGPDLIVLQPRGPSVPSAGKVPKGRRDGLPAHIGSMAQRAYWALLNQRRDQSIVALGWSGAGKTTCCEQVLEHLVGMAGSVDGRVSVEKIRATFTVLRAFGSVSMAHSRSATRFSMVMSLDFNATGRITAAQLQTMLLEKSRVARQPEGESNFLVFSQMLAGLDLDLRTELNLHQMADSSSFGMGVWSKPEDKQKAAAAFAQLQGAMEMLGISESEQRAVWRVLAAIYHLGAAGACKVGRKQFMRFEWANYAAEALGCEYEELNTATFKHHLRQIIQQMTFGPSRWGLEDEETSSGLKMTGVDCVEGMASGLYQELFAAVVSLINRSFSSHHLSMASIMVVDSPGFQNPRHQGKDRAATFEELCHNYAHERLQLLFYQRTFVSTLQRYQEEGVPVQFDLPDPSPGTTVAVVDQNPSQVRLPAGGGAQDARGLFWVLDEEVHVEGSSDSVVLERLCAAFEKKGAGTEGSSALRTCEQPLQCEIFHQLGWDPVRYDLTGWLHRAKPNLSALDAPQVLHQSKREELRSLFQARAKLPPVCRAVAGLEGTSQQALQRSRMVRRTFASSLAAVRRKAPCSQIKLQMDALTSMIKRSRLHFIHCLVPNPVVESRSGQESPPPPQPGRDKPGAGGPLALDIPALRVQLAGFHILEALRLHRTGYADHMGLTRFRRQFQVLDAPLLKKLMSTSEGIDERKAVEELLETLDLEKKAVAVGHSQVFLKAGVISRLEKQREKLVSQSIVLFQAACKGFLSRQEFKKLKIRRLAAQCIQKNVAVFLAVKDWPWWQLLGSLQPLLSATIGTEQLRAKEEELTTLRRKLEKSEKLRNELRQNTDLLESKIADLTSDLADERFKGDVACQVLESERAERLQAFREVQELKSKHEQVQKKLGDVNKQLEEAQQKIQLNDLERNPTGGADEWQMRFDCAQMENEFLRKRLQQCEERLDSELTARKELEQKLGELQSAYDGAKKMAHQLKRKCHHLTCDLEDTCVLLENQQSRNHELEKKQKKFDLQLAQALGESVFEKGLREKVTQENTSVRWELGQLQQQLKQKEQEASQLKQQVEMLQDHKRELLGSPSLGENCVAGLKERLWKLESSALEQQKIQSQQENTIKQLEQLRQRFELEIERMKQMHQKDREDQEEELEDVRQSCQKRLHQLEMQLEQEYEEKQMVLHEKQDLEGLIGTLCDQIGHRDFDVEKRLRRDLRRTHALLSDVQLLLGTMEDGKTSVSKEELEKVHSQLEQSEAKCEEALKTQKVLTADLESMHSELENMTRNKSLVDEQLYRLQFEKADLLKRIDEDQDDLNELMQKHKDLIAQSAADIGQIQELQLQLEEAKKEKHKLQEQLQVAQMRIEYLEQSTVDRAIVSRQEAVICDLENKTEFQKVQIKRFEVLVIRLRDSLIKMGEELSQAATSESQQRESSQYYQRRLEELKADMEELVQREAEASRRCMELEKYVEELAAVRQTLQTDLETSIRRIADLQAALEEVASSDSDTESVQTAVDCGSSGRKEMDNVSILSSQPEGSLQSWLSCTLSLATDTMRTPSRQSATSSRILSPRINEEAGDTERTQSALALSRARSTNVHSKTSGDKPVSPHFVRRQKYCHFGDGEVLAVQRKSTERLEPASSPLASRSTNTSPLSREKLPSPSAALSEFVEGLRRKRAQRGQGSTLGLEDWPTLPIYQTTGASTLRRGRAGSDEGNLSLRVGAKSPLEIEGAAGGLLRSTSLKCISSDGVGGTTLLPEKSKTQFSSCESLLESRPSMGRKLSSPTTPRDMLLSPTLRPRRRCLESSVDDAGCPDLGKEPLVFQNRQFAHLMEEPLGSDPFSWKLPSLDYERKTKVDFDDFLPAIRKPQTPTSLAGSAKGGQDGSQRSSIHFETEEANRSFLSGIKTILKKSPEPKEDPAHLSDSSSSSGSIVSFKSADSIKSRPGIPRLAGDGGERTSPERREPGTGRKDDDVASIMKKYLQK
UniProt Q9H6N6: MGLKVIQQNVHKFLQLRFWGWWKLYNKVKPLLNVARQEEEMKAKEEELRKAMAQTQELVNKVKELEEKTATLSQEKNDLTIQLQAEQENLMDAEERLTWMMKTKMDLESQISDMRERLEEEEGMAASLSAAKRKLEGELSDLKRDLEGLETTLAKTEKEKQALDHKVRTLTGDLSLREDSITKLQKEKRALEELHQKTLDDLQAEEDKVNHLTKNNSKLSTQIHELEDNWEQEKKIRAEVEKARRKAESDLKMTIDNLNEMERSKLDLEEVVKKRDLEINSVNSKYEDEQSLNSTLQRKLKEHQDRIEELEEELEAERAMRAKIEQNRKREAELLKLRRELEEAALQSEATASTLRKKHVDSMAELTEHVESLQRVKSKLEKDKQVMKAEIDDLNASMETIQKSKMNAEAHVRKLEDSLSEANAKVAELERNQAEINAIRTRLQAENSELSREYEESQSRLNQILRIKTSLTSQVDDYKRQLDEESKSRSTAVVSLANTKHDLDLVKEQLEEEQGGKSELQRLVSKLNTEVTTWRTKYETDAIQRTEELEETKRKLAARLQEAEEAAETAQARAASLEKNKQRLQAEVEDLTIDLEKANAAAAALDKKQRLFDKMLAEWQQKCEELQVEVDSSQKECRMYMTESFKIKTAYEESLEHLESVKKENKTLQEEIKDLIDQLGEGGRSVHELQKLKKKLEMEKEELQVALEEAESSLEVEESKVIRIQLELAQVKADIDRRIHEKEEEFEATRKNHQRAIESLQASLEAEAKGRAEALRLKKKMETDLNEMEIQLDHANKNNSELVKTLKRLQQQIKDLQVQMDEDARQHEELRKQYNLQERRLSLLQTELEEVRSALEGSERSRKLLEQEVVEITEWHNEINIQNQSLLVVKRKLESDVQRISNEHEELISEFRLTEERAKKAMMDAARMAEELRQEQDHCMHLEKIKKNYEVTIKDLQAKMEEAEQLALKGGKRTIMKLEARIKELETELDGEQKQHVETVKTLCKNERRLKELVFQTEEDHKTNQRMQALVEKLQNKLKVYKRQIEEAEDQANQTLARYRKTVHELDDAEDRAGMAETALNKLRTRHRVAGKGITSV
UniProt P11586, whole entry, looked up: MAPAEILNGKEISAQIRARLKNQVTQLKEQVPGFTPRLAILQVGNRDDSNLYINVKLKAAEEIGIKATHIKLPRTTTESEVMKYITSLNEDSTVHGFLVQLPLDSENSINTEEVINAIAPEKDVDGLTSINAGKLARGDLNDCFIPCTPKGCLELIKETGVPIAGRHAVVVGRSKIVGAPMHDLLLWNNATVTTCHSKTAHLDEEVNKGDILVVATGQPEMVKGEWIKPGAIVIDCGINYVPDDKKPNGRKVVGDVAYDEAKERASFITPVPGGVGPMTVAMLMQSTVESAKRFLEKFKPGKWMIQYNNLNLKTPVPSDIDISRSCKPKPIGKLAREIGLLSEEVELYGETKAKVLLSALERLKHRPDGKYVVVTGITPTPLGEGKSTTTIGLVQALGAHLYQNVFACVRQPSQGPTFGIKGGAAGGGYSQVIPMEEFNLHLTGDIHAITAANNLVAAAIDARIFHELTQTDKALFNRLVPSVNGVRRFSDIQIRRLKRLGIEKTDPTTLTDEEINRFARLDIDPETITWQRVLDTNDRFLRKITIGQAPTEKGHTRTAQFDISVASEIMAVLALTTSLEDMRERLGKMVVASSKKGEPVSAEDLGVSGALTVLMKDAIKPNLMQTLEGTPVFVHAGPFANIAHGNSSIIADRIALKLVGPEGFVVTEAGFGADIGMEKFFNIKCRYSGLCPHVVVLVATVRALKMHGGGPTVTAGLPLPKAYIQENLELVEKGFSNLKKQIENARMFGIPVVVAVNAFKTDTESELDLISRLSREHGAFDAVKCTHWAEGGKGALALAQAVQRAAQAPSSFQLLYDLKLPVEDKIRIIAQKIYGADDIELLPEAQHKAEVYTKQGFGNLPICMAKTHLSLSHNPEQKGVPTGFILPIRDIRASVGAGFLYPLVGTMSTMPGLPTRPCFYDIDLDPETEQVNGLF
UniProt P13640: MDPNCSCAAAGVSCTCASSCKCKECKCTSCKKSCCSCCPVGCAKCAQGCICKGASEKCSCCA
UniProt Q9NYA4: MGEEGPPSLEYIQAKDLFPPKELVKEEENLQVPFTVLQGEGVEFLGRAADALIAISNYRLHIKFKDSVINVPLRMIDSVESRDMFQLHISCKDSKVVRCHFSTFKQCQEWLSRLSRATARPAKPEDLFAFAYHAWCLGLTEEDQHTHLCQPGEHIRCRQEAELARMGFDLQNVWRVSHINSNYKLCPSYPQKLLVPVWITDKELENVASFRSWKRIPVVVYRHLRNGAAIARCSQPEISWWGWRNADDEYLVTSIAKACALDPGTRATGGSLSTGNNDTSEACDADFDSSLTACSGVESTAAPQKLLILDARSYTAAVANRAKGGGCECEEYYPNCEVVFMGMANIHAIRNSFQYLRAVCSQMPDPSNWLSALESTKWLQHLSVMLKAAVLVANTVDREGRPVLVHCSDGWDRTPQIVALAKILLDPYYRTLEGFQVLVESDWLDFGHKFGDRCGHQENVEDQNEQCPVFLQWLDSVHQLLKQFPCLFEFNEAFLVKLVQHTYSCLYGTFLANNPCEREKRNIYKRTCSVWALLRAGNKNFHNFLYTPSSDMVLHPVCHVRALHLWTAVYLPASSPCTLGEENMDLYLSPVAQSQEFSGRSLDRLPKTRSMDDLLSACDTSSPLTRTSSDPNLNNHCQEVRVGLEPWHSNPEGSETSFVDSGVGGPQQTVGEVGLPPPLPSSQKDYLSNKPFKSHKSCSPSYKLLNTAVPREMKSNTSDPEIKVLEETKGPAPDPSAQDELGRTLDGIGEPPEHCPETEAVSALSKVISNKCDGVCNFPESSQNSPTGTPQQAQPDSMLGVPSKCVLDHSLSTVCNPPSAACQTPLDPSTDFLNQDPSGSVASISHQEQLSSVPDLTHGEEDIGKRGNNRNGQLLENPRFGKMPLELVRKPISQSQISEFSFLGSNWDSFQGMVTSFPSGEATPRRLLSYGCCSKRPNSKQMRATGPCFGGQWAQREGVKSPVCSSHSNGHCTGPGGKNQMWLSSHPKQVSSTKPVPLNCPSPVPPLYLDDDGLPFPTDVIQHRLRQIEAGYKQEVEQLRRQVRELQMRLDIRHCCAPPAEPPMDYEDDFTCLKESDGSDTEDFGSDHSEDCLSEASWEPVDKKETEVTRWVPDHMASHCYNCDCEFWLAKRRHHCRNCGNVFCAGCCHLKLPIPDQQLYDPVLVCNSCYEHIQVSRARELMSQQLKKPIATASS
UniProt Q9Y2Z2: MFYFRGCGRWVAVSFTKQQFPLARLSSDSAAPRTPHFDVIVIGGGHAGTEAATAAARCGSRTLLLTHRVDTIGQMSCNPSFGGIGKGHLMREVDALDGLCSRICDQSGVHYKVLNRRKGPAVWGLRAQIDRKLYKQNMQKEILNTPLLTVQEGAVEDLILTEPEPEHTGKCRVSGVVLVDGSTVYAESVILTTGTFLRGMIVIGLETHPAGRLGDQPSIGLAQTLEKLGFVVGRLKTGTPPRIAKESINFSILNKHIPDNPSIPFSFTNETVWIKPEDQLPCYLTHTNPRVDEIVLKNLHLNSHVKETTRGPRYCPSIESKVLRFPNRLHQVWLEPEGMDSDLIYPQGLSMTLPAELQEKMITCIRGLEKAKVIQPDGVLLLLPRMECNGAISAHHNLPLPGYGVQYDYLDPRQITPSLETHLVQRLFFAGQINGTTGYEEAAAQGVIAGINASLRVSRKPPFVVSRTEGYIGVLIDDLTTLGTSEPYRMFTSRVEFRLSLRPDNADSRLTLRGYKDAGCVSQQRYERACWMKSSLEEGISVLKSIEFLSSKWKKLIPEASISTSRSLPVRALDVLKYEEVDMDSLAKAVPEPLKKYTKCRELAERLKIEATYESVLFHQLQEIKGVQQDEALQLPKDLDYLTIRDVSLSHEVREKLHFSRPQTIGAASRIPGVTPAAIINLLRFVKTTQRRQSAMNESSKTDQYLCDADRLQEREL

Compound: CC1=C(C=C(C=C1)NC(=O)C2=CC(=CC=C2)C(C)(C)C#N)NC3=CC4=C(C=C3)N=CN(C4=O)C
Assay: log2 fold change, soluble protein after heating vs DMSO (PISA); higher = thermal stabilisation; K562 cells, 10 uM, 30 min; active = over 0.2 and 3.5 SD of the protein, either way, in both replicates (recomputed)
Outline: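 K562 cells at 2×10^6 cells/mL were given 10 μM compound for 30 min. Aliquots then went through 3 min of heating across 48°C-58°C, were pooled, and were extracted in PBS with 0.5% NP-40 at 4°C, and the supernatant after 21,000xg for 90 min was quantified by TMTpro 16plex LC-MS/MS with channel sums equalised. Thermal stability relative to control samples, from duplicates, is given as log2 fold change.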

Target	log2 fold change
MXRA8 isoform 2 (UniProt Q9BRK3)	inactive: 0.086
MUC7 (UniProt Q8TAX7)	inactive: -0.186
MT-ND1 (UniProt P03886)	inactive: -0.002
MTHFSD isoform 3 (UniProt Q2M296)	inactive: -0.29
MYL6 (UniProt G3V1V0)	inactive: -0.267
MRPS15 (UniProt P82914)	inactive: 0.04
MTCH2 (UniProt E9PIE4)	inactive: 0.02
MYO9A isoform 4 (UniProt B2RTY4)	inactive: 0.129
MYO18B isoform 3 (UniProt Q8IUG5)	inactive: -0.187
MYH16 (UniProt Q9H6N6)	inactive: 0.484
MTERF3 (UniProt Q96E29)	inactive: 0.036
MT-CO3 (UniProt P00414)	inactive: -0.075
MRPS14 (UniProt O60783)	inactive: -0.015
MTHFD1, A0A384N5Y3	inactive: 0.036
MTHFD1 (UniProt P11586)	inactive: 0.052
MYLK (UniProt Q15746)	active: 0.832

Target	log2 fold change
MRPS18C (UniProt Q9Y3D5)	inactive: 0.024
MTA3 (UniProt Q9BTC8)	inactive: -0.034
MTMR10 (UniProt Q9NXD2)	inactive: 0.143
MTMR14 (UniProt Q8NCE2)	inactive: -0.009
MT-CO1 (UniProt P00395)	inactive: 0.01
MYD88 isoform 6 (UniProt Q99836)	inactive: -0.091
MT1G (UniProt P13640)	inactive: 0.02
MTFR1L (UniProt Q9H019)	inactive: 0.082
MRPS16 (UniProt Q9Y3D3)	inactive: 0.055
MTFMT (UniProt Q96DP5)	inactive: -0.029
MRPS21 (UniProt P82921)	inactive: 0.015
MTMR1 (UniProt Q13613)	inactive: -0.175
MTMR4 (UniProt Q9NYA4)	inactive: -0.089
MRPS26 (UniProt Q9BYN8)	inactive: 0.021
MTERF4 (UniProt Q7Z6M4)	inactive: 0.112
MTO1 isoform 6 (UniProt Q9Y2Z2)	inactive: -0.142

Copied from the results shown (2 entries):
Target	log2 fold change
MTFR1L (UniProt Q9H019)	inactive: 0.082
MRPS16 (UniProt Q9Y3D3)	inactive: 0.055
